Test results: article PMC10710507 (Nature Communications, 2023)
Several values for one entry are separate records, joined by “and”; a condition that tells them apart may be missing. Identical values can stand only once.

Tests used:
Assay type in all cases: binding, rat
enNTS1 [1] = assay: Ligand-observed 19F NMR / 19F STD, enNTS1 complex; details: 298 K
G50tfmF-enNTS1-R213 = assay: Receptor-observed 19F NMR, G50tfmF-enNTS1-R213
enNTS1 [2] = assay: Hydrogen-deuterium exchange mass spectrometry; details: 20 °C; for Relative deuterium uptake, FDFYHYF (TM7) / Relative deuterium uptake, FTMGLQNL (ECL2) / Relative deuterium uptake, PVDVYN (TM2; printed PVDYN in NT8-13 table) / Relative deuterium uptake, DVNTDIYSKV (TM1): enNTS1 + ligand, mean, n = 4 (NT8-13) or 3 (SR142948A)
G50tfmF-enNTS1 = assay: Receptor-observed 19F NMR, G50tfmF-enNTS1
G50tfmF-enNTS1-P51A-R213 = assay: Receptor-observed 19F NMR, G50tfmF-enNTS1-P51A-R213; details: G50tfmF-enNTS1-P51A-R213, ligand bound, 298 K, spectral deconvolution
[3] = G50tfmF-enNTS1-R213, ligand bound, 298 K, spectral deconvolution
[4] = 0.1 min, no back-exchange correction
[5] = G50tfmF-enNTS1, ligand bound, 298 K, spectral deconvolution

Y11tfmF-NT8-13: truncated version of 19F-NT (RRPFIL; para-trifluoromethyl-phenylalanine (tfmF) at position 11)
signal splitting / conformational heterogeneity in complex with enNTS1 (enNTS1 [1]; 19F NMR): Such signal splitting can be observed | population of S1 conformer (enNTS1 [1]; 19F NMR, enNTS1 complex): ~ 25%

P10A-Y11tfmF-NT8-13: Mutation of Pro10 to alanine in Y11tfmF-NT8-13 (RRAFIL; para-trifluoromethyl-phenylalanine (tfmF) at position 11)
signal splitting / conformational heterogeneity in complex with enNTS1 (enNTS1 [1]; 19F NMR): preserves the conformational heterogeneity

Y11tfmF-NT: fluorinated analogue of NT, Tyr11 substituted with para-trifluoromethyl-phenylalanine (ELYENKPRRPFIL; para-trifluoromethyl-phenylalanine (tfmF) at position 11; pyroglutamate (pE) at position 1 as in NT)
signal splitting / conformational heterogeneity in complex with enNTS1 (enNTS1 [1]; 19F NMR): two distinct resonances were observed | population of additional upfield bound state (19F NMR) (enNTS1 [1]; enNTS1 complex, 50 mM potassium phosphate pH 7.4, 0.05% DDM): ~ 25%

COc1cccc(OC)c1-c1cc(C(=O)NC2(C(=O)O)C3CC4CC(C3)CC2C4)nn1-c1ccc(C(=O)N(C)CCCN(C)C)cc1C(C)C (centres unmarked) [SR142948A]
formation of substate P4 (G50tfmF-enNTS1-R213; G50tfmF-enNTS1-R213, 19F NMR): no evidence of formation of the substate P4 | population of P1 (G50tfmF-enNTS1-R213; [3]): 29.3% | population of P2 (G50tfmF-enNTS1-R213; [3]): 49% | population of P3 (G50tfmF-enNTS1-R213; [3]): 21.7% | Relative deuterium uptake, FDFYHYF (TM7) (enNTS1 [2]; 0.1 min): -0.1975 Da | Relative deuterium uptake, FTMGLQNL (ECL2) (enNTS1 [2]; 0.1 min): 1.081 Da | Relative deuterium uptake, PVDVYN (TM2; printed PVDYN in NT8-13 table) (enNTS1 [2]; 0.1 min): 0.0863 Da | Relative deuterium uptake, DVNTDIYSKV (TM1) (enNTS1 [2]; [4]): 4.064 Da | Relative deuterium uptake, DVNTDIYSKV (TM1) (enNTS1 [2]; 1 min): 4.291 Da | Relative deuterium uptake, FDFYHYF (TM7) (enNTS1 [2]; 1 min): 0.1096 Da | Relative deuterium uptake, FTMGLQNL (ECL2) (enNTS1 [2]; 1 min): 1.126 Da | Relative deuterium uptake, PVDVYN (TM2; printed PVDYN in NT8-13 table) (enNTS1 [2]; 1 min): 0.06178 Da | Relative deuterium uptake, DVNTDIYSKV (TM1) (enNTS1 [2]; 10 min): 5.3117 Da | Relative deuterium uptake, FDFYHYF (TM7) (enNTS1 [2]; 10 min): 0.3061 Da | Relative deuterium uptake, FTMGLQNL (ECL2) (enNTS1 [2]; 10 min): 1.585 Da | Relative deuterium uptake, PVDVYN (TM2; printed PVDYN in NT8-13 table) (enNTS1 [2]; 10 min): 0.08314 Da | Relative deuterium uptake, DVNTDIYSKV (TM1) (enNTS1 [2]; 100 min): 5.214 Da | Relative deuterium uptake, FDFYHYF (TM7) (enNTS1 [2]; 100 min): 0.7404 Da | Relative deuterium uptake, FTMGLQNL (ECL2) (enNTS1 [2]; 100 min): 2.166 Da | Relative deuterium uptake, PVDVYN (TM2; printed PVDYN in NT8-13 table) (enNTS1 [2]; 100 min): 0.3304 Da | deuterium uptake change, first residues of TM1 (DVNTDIYSKV) (enNTS1 [2]; enNTS1 apo vs ligand bound): absence of such protection | protection from deuterium exchange, extracellular end of TM2 (enNTS1 [2]; enNTS1 apo vs ligand bound): increase in protection from deuterium exchange | protection from deuterium exchange, extracellular end of TM7 (enNTS1 [2]; enNTS1 apo vs ligand bound): increase in protection from deuterium exchange | protection from deuterium exchange, peptides from ECL2 (enNTS1 [2]; enNTS1 apo vs ligand bound): increase in protection in either ligand bound state

NT8-13: last six residues of NT
P1 in ligand bound state (G50tfmF-enNTS1; G50tfmF-enNTS1, 19F NMR, saturating ligand): P1 disappears | population of P3 (G50tfmF-enNTS1; [5]): 10% | population of P4 (G50tfmF-enNTS1; [5]): 90% and ~ 90% | P2 in ligand bound state (G50tfmF-enNTS1; G50tfmF-enNTS1, saturating NT8-13 (10-fold excess)): absent | population of P2 (G50tfmF-enNTS1-R213; [3]): 9.3% | population of P3 (G50tfmF-enNTS1-R213; [3]): 1.3% | population of P4 (G50tfmF-enNTS1-R213; [3]): 89.4% and ~ 90% | population of P3 (G50tfmF-enNTS1-P51A-R213): 23% | population of P4 (G50tfmF-enNTS1-P51A-R213): 77% | Relative deuterium uptake, FDFYHYF (TM7) (enNTS1 [2]; 0.1 min): -0.1264 Da | Relative deuterium uptake, FTMGLQNL (ECL2) (enNTS1 [2]; 0.1 min): 0.5871 Da | Relative deuterium uptake, DVNTDIYSKV (TM1) (enNTS1 [2]; [4]): 2.294 Da | Relative deuterium uptake, DVNTDIYSKV (TM1) (enNTS1 [2]; 1 min): 2.382 Da | Relative deuterium uptake, FDFYHYF (TM7) (enNTS1 [2]; 1 min): -0.1354 Da | Relative deuterium uptake, FTMGLQNL (ECL2) (enNTS1 [2]; 1 min): 0.5887 Da | Relative deuterium uptake, DVNTDIYSKV (TM1) (enNTS1 [2]; 10 min): 2.712 Da | Relative deuterium uptake, FDFYHYF (TM7) (enNTS1 [2]; 10 min): -0.1142 Da | Relative deuterium uptake, FTMGLQNL (ECL2) (enNTS1 [2]; 10 min): 0.7752 Da | Relative deuterium uptake, DVNTDIYSKV (TM1) (enNTS1 [2]; 100 min): 3.919 Da | Relative deuterium uptake, FDFYHYF (TM7) (enNTS1 [2]; 100 min): 0.2797 Da | Relative deuterium uptake, FTMGLQNL (ECL2) (enNTS1 [2]; 100 min): 1.448 Da
